In all, about 53,000 sequences went through this assay and about 3,700 (7%) were called active.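 How the source made its calls: active means gene knockdowns whose robust z-score for IL-1 alpha signal is at least 2 or at most -2, so actives lie on both sides; inactive means the rest.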 This is one part of the list.

This test is described as follows: Components of the Cytosolic LPS Sensing Pathway: Gene Identification via Genome-wide siRNA Screen.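 Further: robust z of the log signal after scaling to non-targeting control siRNA wells of the plate.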 Particulars: RAW264.7 macrophages, IL-1a HTRF, actives lie on both sides, screened at 100 nM (by protocol), cells primed 5 h with Pam3CSK4 first. The gist of the method:
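IL-1a HTRF of supernatants after 24 hour LipidA transfection of Pam3CSK4-primed (5 hours) RAW264.7 cells, 48h post-siRNA transfection (100 nM). Scores: percent of plate negative-control median, then log-based robust z-score.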
(TR-FRET usually uses a lanthanide donor and a delayed reading to cut background.)
GCUCUCACAAGAUUGUUUCTT against Tcaf3: the z-score was inactive: -0.408.
For GGACUAUCCUCACUCCCUUTT against Pigo, the z-score is inactive: -0.0578.
GGAUUUGACUAACAUAGGGTT against Pimreg: the z-score is inactive: 0.724.
Next, GGAGAUGGUUAUGUGGGAUTT against Tgoln2: inactive: 0.879.
Consider GGAACUACGAAGUCUGUUCTT against Elavl1, for which the z-score was inactive: 0.271.
On to GGGAGAAGAGAUUUUCUUGTT against Clec16a, for which the z-score is inactive: 1.17.
With GGUUUUUUAUUCCUGAUGGTT against Slc35f1, the z-score is inactive: -1.45.
To GGCAAAUAUGAACGUGCACTT against Ptcd2 belongs inactive: -0.67; to GGCGAGUUCCAGAUUCUUCTT against Car3, inactive: 1.69; to CGGGUGAAGAAACAAAAAUTT against Nap1l1, inactive: -0.947.
Next, CGAAAAUCAAGGGAGCUCATT against Rnf19a: inactive: 0.606; GGAACAUGUUCUGCAUUUATT against Rab40b: inactive: -1.82; GGAUUCCUGAUUUCUUCAUTT against Snip1: inactive: 0.915.
In the case of CCACAUCUUCACAAUGUCCTT against Cdk8, the z-score is inactive: -0.981.
Next, CGACAUAUAAAAUUGUUCCTT against Cobl: inactive: 0.842; GCUUCAUGGAUGCAAUUGATT against Adhfe1: inactive: -0.659.
Consider GCCUAUGGACCUUAAUCGUTT against Cfap69, for which the z-score was inactive: -0.463.
Next, GGACCAGAAGAGGAUGGUCTT against Ndn: inactive: -0.0237; GCAACUCUUGGUUUCCUGUTT against Fam222b: inactive: 1.71; GCCAUGUUAACAUGAUGAUTT against Lrrc14b: inactive: -1.38.
Turning to CGAAUUCACGAACUUGAGATT against Ccdc69, the z-score is inactive: 0.181.
Turning to CGUUAGUGCUGGUUAAUGATT against Cdk5r1, the z-score was inactive: -0.507.
Take GCUUAACAGGAGCAUUGGCTT against Raly: the z-score was inactive: -0.0735.
Next, GGAGAUGUCUGAUGUAACCTT against Abtb2: inactive: -0.664.
To GGAAAGCUACUGUCAGAGUTT against Olfr473 belongs inactive: -0.885; to GGGUAUGGAUAUGGAGGUGTT against Krt90, inactive: -1.05; to GGCAAGGUCUUCAAAGCGCTT against Zbtb8a, inactive: -1.54.
Take CCACGAUUUCCCAAUCCUGTT against Fiz1: the z-score is inactive: -0.131.
To CCUAUCAUGUUAAAAACAGTT against Grem2 belongs inactive: -1.13; to GGACCACUAGACCUGAUAATT against Itgb1bp1, inactive: 0.116; to GGACUUGGAGUUUCGUAAATT against Lmnb1, active: 2.92.
Next, GCCAUGCAAAUCGAUGGGUTT against Rora: active: -2.69; GGAAUGGACCUCAAAAUUGTT against Vmp1: inactive: 0.532.
Next, GGAAAUUGUCUUUGGCUUUTT against Otop1: inactive: -0.0923; GGCUGUAAUGACGAAUACATT against Naa25: inactive: 0.764; CUUUGGUAGGAAACCUCUUTT against Olfr1281: inactive: 0.5.
In the case of CGGACGACAUUACAAUUGATT against Nrxn2, the z-score is inactive: 0.123.
Next, GAAACUGCUGCCUCACAUCTT against Rplp0: inactive: -0.932.
On to GGUUGGCAUCAACUACCAATT against Tuba4a, for which the z-score was inactive: 1.4.
For GGCCUUAAUUAUGUCUUAGTT against Slc25a25, the z-score was inactive: 1.21.
As to CCGGUAUGGCAAAAGCCAUTT against Pomt1, the z-score was inactive: -0.118.
To GGUUCUGUUCCCAUGAGAATT against Ntng2 belongs inactive: -0.934.
In the case of GGCUUCCAGUAAUGACAAUTT against Vwc2l, the z-score was inactive: -1.67.
As for GGUAUUCUUGGUGUUAGAATT against Ldhal6b, the z-score was inactive: -0.532.
As to GCCCUGUUUACACCUCUGATT against Sec23a, the z-score is inactive: -1.38.
In the case of GGCUUCACAUUUUGGCAGUTT against Stat6, the z-score was inactive: -0.942.
Turning to GAUGUACUUAUUCAUGAUGTT against Olfr353, the z-score is inactive: 0.249.
To GGUGUUAUGCAAAAUUCAGTT against Slc7a6 belongs inactive: 0.607; to GGUUAAACAGCUCCAUUUUTT against Padi2, inactive: 0.582.
Regarding GCAUAAACAGCGACAAAUGTT against Mrpl36, the z-score is inactive: -1.24.
Next, GGUAGUGAUUACGAACCAATT against Hey1: inactive: 0.605.
Next, GGAUGUCUUUCCUACACGUTT against Mob3c: inactive: 0.402; GGUCUGGAGAUUGUAUUUUTT against Ptpn21: inactive: 0.18; GGUGGUGACCUCCACAGAUTT against Clcnka: inactive: -1.09.
Next, GGUGAACGGAUAUCCUGUGTT against Pdzd3: inactive: -0.227; GGAGGGUAGGUCCUUUGUATT against Pcdhb16: inactive: -0.381; GCCGCUGAACAAUUUAUCCTT against Rnase6: inactive: -0.184.
For GCUUGAAUCCGAUUUGUUATT against Gramd1c, the z-score is inactive: 0.296.
On to GGAACAACAAAAAUUCCAATT against Tor1b, for which the z-score was inactive: 1.12.
Next, CGGCAAUGCGUUUCCUUUUTT against Lama4: inactive: 1.58; CCAAUUCAUGGUGUUCUUUTT against H2-Aa: inactive: 1.23; GGCAGAAGCCUAAAACGGUTT against Nudt2: inactive: 0.00394.
To GGGUUCCAUAUGAUUGCUCTT against St18 belongs inactive: 0.137.
To UCAUGGUCAUCUUUACCCUTT against Tmem259 belongs inactive: -1.03.
Take CCACCAAAAUUUCAUGAUATT against Eps15l1: the z-score was inactive: 0.364.
Next, CCCAUGGUCACUUAUAUAUTT against Jarid2: inactive: 0.109; CCGGUCAUCUUUCUAUUAUTT against Adtrp: inactive: 1.69.
With GGGCUUCUCUUUGCACUCUTT against Olfr1366, the z-score was inactive: 0.44.
To GGUCAUCCGAGAUUUCACCTT against Elavl3 belongs inactive: -0.944; to CCAAACCAGUGGAGUCCAUTT against Slc7a14, active: -2.26.
To “GCUAACCUUGUUUUACAAGTT against D030056L22Rik” belongs inactive: 0.652; to GGAGGGUAAGACAAUGCACTT against Tmem17, inactive: -0.62.
To GGGCUUAAGCUUUGAGGGUTT against Foxs1 belongs inactive: 0.213; to GCCCUACCAAAGACACUAGTT against Lrch4, active: -2.31.
Regarding GGUUUUUGAUCUUUGUGUCTT against Nr2c1, the z-score is inactive: -1.57.
Turning to GGAAGAGGAGGUGACAUACTT against Exd1, the z-score is inactive: -1.15.
Next, GCUUGUGGUCUUUAUCUUCTT against Olfr1490: inactive: 0.596; “GGCAAUGUUUUUCUUGUUGTT against 9330132A10Rik”: inactive: -1.12.
Next, GCCUAAAGCGGCCAAACCATT against H1f4: inactive: 0.905; CCCUUUCAUUGUGCAUUAATT against Hdhd2: active: -2.22; GCUAUUUUUGUGGGUGAUUTT against Otx2: inactive: -0.315.
For the sequence GGAUAAGAAACGCAGAGUUTT against Dnmt1, the z-score was inactive: -0.83.
Next, CGGCGAGGAGAAGAUAAAATT against Vps36: inactive: 0.626.
Next, GGCAGCAUAAGAGCUGUUCTT against Id3: inactive: 0.106; CCUAUUGUAGCAAGUUACATT against H3c7: inactive: 1.15.
As to CCCAUGAACCUUAUUUGAATT against Ino80c, the z-score is inactive: -0.268.
With GGUUGGGCUGCCAAGUUUGTT against Fdx1, the z-score was inactive: 1.96.
For GGGUGUUGGAAAUUAAUCUTT against Rpl31, the z-score is inactive: 0.79.
For the sequence GCACCGUGUCGUUGACUUGTT against Trim56, the z-score is inactive: 0.566.
As to GGUGAUAAAUCCAAAAAAGTT against Cpne5, the z-score was inactive: -0.234.
Next, CGACUGCAUUCAAACUACUTT against Uqcc2: inactive: -0.0188.
To GCCAGUACAUUGUCCAUGATT against Znf41-ps belongs inactive: -0.269; to “GGUCAUUCCAGCAAGGGUATT against D130079A08Rik”, inactive: 1.43; to GGAGCAUCUCUCCAGAUUGTT against Igsf9, inactive: 0.567.
To GCCAUUACUAUGAUUAUCCTT against Itgb1 belongs inactive: -1.39; to GCAGUUAGGUGUCGUAUAUTT against Lrpprc, inactive: 0.894.
As for GGAGCAUCUCAAACCUUCATT against Lancl3, the z-score was active: -3.8.
Next, GCGAAUAGGAUCCAGCUAUTT against Sin3b: inactive: 0.792; GCGGGAUUGGUCAUUCCACTT against Mrpl45: active: 2.97.
To GCUAGGAUUUCAGCAUAUATT against Adra1a belongs inactive: 0.29; to GGCAAAAUGUAUGGUAGAATT against Tead1, inactive: -0.326.
To GGUACUCAUAAAACAUGAATT against Ticam2 belongs inactive: -1.04.
In the case of GGCAGCAUUGCAAUUUCUATT against Urb2, the z-score was inactive: -0.735.
“GGGCCACUGCCAAAUACUATT against 2510009E07Rik”: the z-score is active: 3.33.
Turning to GGAUUUGAGUGGUAAUGAATT against Tm2d1, the z-score was active: -2.2.
To GGGUUGACCACUAUUUCUGTT against Olfr1338 belongs inactive: -1.06; to GGCAAUUGUCUCAUUCUGATT against Olfr631, inactive: 0.806.

These data come from PubChem BioAssay AID1508600 (Functional Genomics Laboratory (NCATS/FGL), 2020).
